According to publication PMC5706330:
These are yes or no findings as the source states them, for the method shown. In cells and extracts the contact can be indirect. Some results given as binding are weak or reduced against the parent protein; the word gives no strength.

By UniProt entry, the sequences of proteins in these tests, tags left out. Residues count along the entry.
UniProt O70437: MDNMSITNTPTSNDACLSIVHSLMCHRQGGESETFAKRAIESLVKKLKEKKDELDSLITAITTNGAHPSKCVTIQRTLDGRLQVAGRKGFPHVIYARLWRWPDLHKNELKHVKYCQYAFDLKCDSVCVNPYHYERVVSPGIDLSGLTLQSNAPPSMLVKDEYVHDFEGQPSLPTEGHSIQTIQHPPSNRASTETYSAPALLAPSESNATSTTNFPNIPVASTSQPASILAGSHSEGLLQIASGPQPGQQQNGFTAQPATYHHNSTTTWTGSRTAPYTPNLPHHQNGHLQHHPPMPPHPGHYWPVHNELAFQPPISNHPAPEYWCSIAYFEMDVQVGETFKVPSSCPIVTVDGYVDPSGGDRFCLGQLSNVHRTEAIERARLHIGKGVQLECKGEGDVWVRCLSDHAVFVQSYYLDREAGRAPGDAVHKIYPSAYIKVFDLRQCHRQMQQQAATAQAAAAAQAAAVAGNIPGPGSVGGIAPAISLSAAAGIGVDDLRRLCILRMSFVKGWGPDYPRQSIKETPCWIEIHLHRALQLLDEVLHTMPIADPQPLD
UniProt P84025: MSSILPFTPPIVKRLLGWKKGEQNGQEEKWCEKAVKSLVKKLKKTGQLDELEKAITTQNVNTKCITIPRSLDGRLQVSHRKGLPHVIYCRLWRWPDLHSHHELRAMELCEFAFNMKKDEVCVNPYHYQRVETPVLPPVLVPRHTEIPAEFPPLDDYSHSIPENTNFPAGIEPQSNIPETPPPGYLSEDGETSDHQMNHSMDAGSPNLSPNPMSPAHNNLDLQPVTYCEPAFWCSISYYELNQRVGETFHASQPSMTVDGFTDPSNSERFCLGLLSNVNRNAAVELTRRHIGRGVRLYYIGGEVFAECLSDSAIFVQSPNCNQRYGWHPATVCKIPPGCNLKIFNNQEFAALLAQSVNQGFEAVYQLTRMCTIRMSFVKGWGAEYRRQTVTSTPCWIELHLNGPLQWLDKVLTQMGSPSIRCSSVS
UniProt Q5I0H3, residues 1-97: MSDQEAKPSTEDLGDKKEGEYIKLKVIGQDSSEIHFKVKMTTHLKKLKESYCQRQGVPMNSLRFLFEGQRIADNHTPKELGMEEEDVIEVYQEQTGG

Key:
[1] = biological target: Smad4 (rat (endogenous in hippocampus)) (UniProt O70437); assay: co-IP; endogenous proteins in clarified rat hippocampal/CA1 lysate (0.5 mg); IP with anti-Smad4, anti-PIAS1 or anti-pSmad3 antibody at 4 °C overnight, protein A or G magnetic beads, washes with 150 mM NaCl and 1% IGEPAL CA-630, western blot; animals untreated, or water maze trained (1 day) versus swimming controls
[2] = biological target: phosphorylated Smad3 (rat (endogenous in hippocampal CA1)) (UniProt P84025); assay: as above

binding [1] | binding [2] | Substance
binds |  | SUMO1 (from UniProt Q5I0H3 1-97)
 | binds | Smad4 (from UniProt O70437 1-552)
